Results taken from publication PMC6281677.
Results are given in words; binding and its absence hold for the method and conditions named. In cells and extracts the contact can be indirect. Binding can be weak; no strength is given.

How the values were obtained:
[1] = target: FLS2 with Lysine 1120 mutated to Arginine, GFP-tagged (Arabidopsis thaliana) (UniProt Q9FL28); assay: co-IP
[2] = target: …-… 2 (FLS2) receptor, GFP-tagged (Arabidopsis thaliana) (UniProt Q9FL28); assay: co-IP; anti-GFP beads (Chromotek) on total protein of N. benthamiana leaves transiently co-expressing the GFP-tagged FLS2 protein and the tagged partner; leaves treated with MgCl2 or flg22 (1 uM, 10 min in the legends; 5 uM, 15 min in the methods); extraction buffer 50 mM HEPES pH 7.5, 1 mM EDTA, 0.5% Triton X-100, 1 mM DTT; on ice 30 min; blots with anti-myc, anti-HA, anti-GFP; for FLS2 with BIK1 also with SUMO1-HA co-expressed, with or without Desi3a-HA, in the presence of flg22

## deSUMOylating enzyme Desi3a, HA-tagged (from UniProt A0A1P8AU07)
[1]
  binding: binds
[2]
  binding: binds
